Test results from publication PMC3464593.
Like-named read-outs stand apart in the source and are kept apart here. These are yes or no findings as the source states them, for the method shown. Binding seen in cells or lysates may run through a third protein. These calls come from enrichment with a bait or labelling near it, and not all partners need be listed. Where a sequence is shown, tags or fusion partners need not be part of it.

T1: GFP-AtRanBPM (Arabidopsis homologue of RanBPM, At1g35470, N-terminal GFP fusion) (Arabidopsis thaliana) (UniProt F4HYD7)
T1 sequence: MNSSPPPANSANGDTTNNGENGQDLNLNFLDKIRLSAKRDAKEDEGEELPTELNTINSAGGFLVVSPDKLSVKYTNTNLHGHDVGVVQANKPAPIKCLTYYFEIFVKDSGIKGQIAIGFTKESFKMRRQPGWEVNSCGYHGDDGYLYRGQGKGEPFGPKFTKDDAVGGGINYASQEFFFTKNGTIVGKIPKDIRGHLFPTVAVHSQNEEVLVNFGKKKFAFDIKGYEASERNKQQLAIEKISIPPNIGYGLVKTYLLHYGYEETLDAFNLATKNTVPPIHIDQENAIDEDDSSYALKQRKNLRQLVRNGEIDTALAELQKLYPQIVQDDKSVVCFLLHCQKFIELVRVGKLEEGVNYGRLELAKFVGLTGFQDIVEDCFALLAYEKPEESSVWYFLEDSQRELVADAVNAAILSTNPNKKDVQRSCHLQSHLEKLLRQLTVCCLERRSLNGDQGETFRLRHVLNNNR

B1: LisH/CRA/RING-U-box domain-containing protein (At3g55070) (protein, UniProt Q9M2V9 1-418)
chain: MEIDSATNGNSDTVMTESAATITPSPVVVSSSRSNQFTESLKLEHQLLRVPFEHYKKTIRTNHRSFEKEVSTIVNGVGELADSDWSKDDTVSRLTCLVTRLQGLKRKLEEGSNVENLQAQRCRARIDHLDSVDVENITEWNNTKLKRILVDYMLRMSYFETATKLSESSNIMDLVDIDIFREAKKVIDALKNREVASALTWCADNKTRLKKSKSKFEFQLRLQEFIELVRVDTAESYKKAIQYARKHLASWGTTHMKELQHVLATLAFKSTTECSKYKVLFELRQWDVLVDQFKQEFCKLYGMTMEPLLNIYLQAGLSALKTPYGLEEGCTKEDPLSQENFRKLALPLPFSKQHHSKLVCYISKELMDTENPPQVLPNGYVYSTKALKEMAEKNGGKITCPRTGLVCNYTELVKAYIS
B2: LisH/CRA/RING-U-box domain-containing protein (At4g37880) (protein, UniProt Q9T075 1-388)
chain: MELKSIKDAFDRVATKQKLSYSKTNEIVHMLSQEIDKALSILEETPSSDTMLLDHRSILADVKKVFMEIAPITQLEATEKELHAALTKYPKVLEKQLNPDISKAYRHNVEFDTHIVNQIIANFFYRQGMFDIGDCFVAETGESECSTRQSFVEMYRILEAMKRRDLEPALNWAVSNSDKLKEARSDLEMKLHSLHFLEIARGKNSKEAIDYARKHIATFADSCLPEIQKLMCSLLWNRKLDKSPYSEFLSPALWNNAVKELTRQYCNLLGESSESPLSITVTAGTQALPVLLKYMNVVMANKKLDWQTMEQLPVDAQLSEEFQFHSVFVCPVSKEQSSDDNPPMMMSCGHVLCKQTINKMSKNGSKSSFKCPYCPTDVDISRCRQLHF
B3: Transducin/WD40 domain-containing protein (At5g08560) (protein, UniProt Q9FNN2 1-589)
chain: MGVVEDTEPPLKRAKRLADEPNGFSANSSVRGSSVNSNSLGDLMARPLPSQGDDETIGSKGVIRKSEFVRIITRALYSLGYDKTGAMLEEESGISLHNSTIKLFLQQVKDGKWDQSVKTLHRIGFPDEKAVKAASFLLLEQKFLEFLKVEKIADALRTLRNEMAPLRINTKRVHELASSLISPSSFISHTTSTPGKESVNSRSKVLEELQTLLPASVIIPEKRLECLVENSLHIQRDSCVFHNTLDSDLSLYSDHQCGKHQIPSQTAQILESHTDEVWFLQFSHNGKYLASSSKDQTAIIWEISADGHISLKHTLVGHHKPVIAILWSPDDRQVLTCGAEEVIRRWDVDSGDCVHMYEKGGISPISCGWYPDGQGIIAGMTDRSICMWDLDGREKECWKGQRTQKVSDIAMTDDGKWLVSVCKDSVISLFDREATVERLIEEEDMITSFSLSNDNKYILVNLLNQEIRLWNIEGDPKIVSRYKGHKRSRFIIRSCFGGYKQAFIASGSEDSQVYIWHRSTGKLIVELPGHAGAVNCVSWSPTNLHMLASASDDGTIRIWGLDRINQQNQKKKLVQGSSSNGVIHRCNGN
B4: Transducin/WD40 domain-containing protein (At5g43920) (protein, UniProt Q9FND4 1-523)
chain: MENGLWEVLGSKGLLKKHEFIRILVQCLYSLGFKNSASCLEFESKILYKTADSEFLEKQVLSGNWDSCVQVLDRIFDNSMDDTRNTALYLVFKQCLLEYLKRGDVSLALNVLRKQAPLLRMGKEKIHRLACDIVYSKEMESGEVDNCLVLDLRRKLLVELEKLIPLPIVIPERRLEHLVETAVMDQIDTCMYHNSCDAVSLYKDHCCGRDQIPSETVQILVAHKNEVWFVQFSNSGKYLATASSDCTAIIWKVLDDNKVELKHTLESHQNPVSFVSWSPDDTKLLTCGNAEVLKLWDVDTGVLRHTFGNNNTGFTVSSCAWFPDSTRLVCGSSDPERGIVMWDTDGNEIKAWRGTRIPKVVDLAVTPDGESMITVFSDKEIRILNLETKVERVISEEQPITSLSISGDGKFFIVNLSCQEIHLWDLAGEWKQPLKFSGHRQSKYVIRSCFGGLDSSFIASGSEDSQVYIWNLKNTKPLEVLSGHSMTVNCVSWNPKNPRMLASASDDQTIRIWGPGKPNKPLN
B5: Yippee family protein (At5g53940) (protein, UniProt Q9FN32 1-129)
chain: MGRIFTVELEGRSYRCRFCRTHLALPDDLVSRSFHCRRGKAYLFNRSVNISMGPLEERLMLSGMHTVADIFCCCCGQNVGWKYESAHEKAQKYKEGKFVLERGRIVDEIDLSTEVYIDTHGSTSDTEDS

What was measured:
[1] = target: T1, GFP-AtRanBPM (Arabidopsis homologue of RanBPM, At1g35470, N-terminal GFP fusion) (Arabidopsis thaliana); test: affinity purification with mass spectrometry; GFP-AtRanBPM immunopurified on GFP-Trap_A beads from S20 extracts (~4 mg protein/mL) of Arabidopsis cultured cells, used directly or solubilized by 1% NP-40 for 1 h at 4 °C; silver-stained SDS-PAGE bands analysed by MALDI-MS, or eluates by …; GFP immunopurification from wild type Ler culture as negative control
[2] = target: T1, GFP-AtRanBPM (Arabidopsis homologue of RanBPM, At1g35470, N-terminal GFP fusion) (Arabidopsis thaliana); test: as above; remark: listed apart in the source

Molecule	binding [1]	binding [2]
Armadillo-repeat-containing protein (At3g08947)	binds	–
Yippee-like protein (At3g08890)	binds	–
B1	–	binds
B2	–	binds
B3	–	binds
B4	–	binds
B5	–	binds
